Measured data: PubChem BioAssay AID1053208 (Peter MacCallum Cancer Centre, 2014)
This is an unselected part of about 17,000 reagents tested. In the full data, 788 (4.7%) got an active call. 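Calls rest on z-score classes alone; an extra cut-off of viability at most 70% of control was not applied to them.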 A number with no mark means an inactive call.

Aim: 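Synthetic lethal interactions between gene loss and doxorubicin in osteosarcoma cells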 (primary screen)
Cell system: mouse osteosarcoma cells, early-passage culture from an engineered mouse model of fibroblastic bone tumour
Knock-down reagent: siRNA pool against mouse genes, 40 nM
Timing: about 120 h (48 h before drug, then 72 h with drug)
Conditions: doxorubicin 100 nM for 72 h, roughly 30-40% inhibitory dose
Read-out: 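Luminescent ATP signal taken as viability with or without 100 nM doxorubicin for 72 h; mean of two wells set against non-targeting siRNA and turned into robust z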
Direction: viability z-score with doxorubicin and doxorubicin viability vs non-targeting: higher = more viable cells under doxorubicin; viability z-score without drug: higher = more viable cells with knock-down alone; z-score of drug to no-drug ratio: higher = less drug sensitisation by knock-down
Rule for the call: 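Called active if knock-down leaves viability unchanged without drug (z within -2 to 2) but lowers it with doxorubicin (z at or under -2)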

| target | PubChem SID | combined z-score class | viability z-score with doxorubicin | viability z-score without drug | z-score of drug to no-drug ratio | doxorubicin viability vs non-targeting |
| --- | --- | --- | --- | --- | --- | --- |
| Ap3m1 (GeneID 55946) | SID152338910 | no change with or without drug | 1.01 | -0.17 | 1.35 | 1.03 |
| Nsun3 (GeneID 106338) | SID152313178 | no change with or without drug | -0.45 | 0.51 | -0.67 | 0.9 |
| Mief1 (GeneID 239555) | SID152300123 | no change with or without drug | -0.45 | 0 | -0.34 | 0.9 |
| Ptgs2 (GeneID 19225) | SID152292817 | no change with or without drug | 1.12 | 0.84 | 0.67 | 1.04 |
| Klf8 (GeneID 245671) | SID152282262 | no change with or without drug | 0 | 0.34 | -0.11 | 0.94 |
| Naca (GeneID 17938) | SID152328194 | no change with or without drug | 0 | -1.01 | 0.9 | 0.94 |
| Tmem74b (GeneID 108832) | SID152324620 | no change with or without drug | -1.12 | 0.51 | -1.35 | 0.84 |
| Dach2 (GeneID 93837) | SID152299771 | no change with or without drug | -1.12 | -0.84 | -0.56 | 0.84 |
| Xiap (GeneID 11798) | SID152303978 | no change with or without drug | -1.12 | -0.17 | -1.01 | 0.84 |
| Kif2c (GeneID 73804) | SID152327029 | no change with or without drug | -0.45 | 1.18 | -1.12 | 0.9 |
| Dpp7 (GeneID 83768) | SID152337950 | no change with or without drug | -0.67 | 1.18 | -1.35 | 0.88 |
| Gspt1 (GeneID 14852) | SID152314172 | low cell count with and without drug | -3.82 | -5.23 | -0.45 | 0.6 |
| Svs3b (GeneID 329557) | SID152312911 | high cell count without drug only | 1.01 | 2.02 | -0.22 | 1.03 |
| Ppp6r1 (GeneID 243819) | SID152279103 | no change with or without drug | 1.46 | 1.69 | 0.45 | 1.07 |
| Ralgps1 (GeneID 241308) | SID152340631 | no change with or without drug | -1.8 | 0.17 | -1.91 | 0.78 |
| 1700010D01Rik (GeneID 76386) | SID152323163 | no change with or without drug | -0.45 | 1.18 | -1.12 | 0.9 |
| Edf1 (GeneID 59022) | SID152293498 | no change with or without drug | 0.9 | 0.84 | 0.45 | 1.02 |
| Klkb1 (GeneID 16621) | SID152274256 | no change with or without drug | -0.45 | 0.84 | -0.9 | 0.9 |
| Fam149b (GeneID 105428) | SID152273234 | low cell count with doxorubicin only (active) | -2.25 | -1.18 | -1.57 | 0.74 |
| Lzts3 (GeneID 241638) | SID152336849 | no change with or without drug | 0.67 | 0.84 | 0.22 | 1 |
| Ugt2b38 (GeneID 100559) | SID152329691 | no change with or without drug | -0.11 | 0.17 | -0.11 | 0.93 |
| Ppp2ca (GeneID 19052) | SID152308387 | no change with or without drug | 0.79 | -0.51 | 1.35 | 1.01 |
| Nutm1 (GeneID 213765) | SID152301087 | no change with or without drug | -0.45 | -1.52 | 0.79 | 0.9 |
| Rab29 (GeneID 226422) | SID152302470 | no change with or without drug | 1.12 | -0.17 | 1.46 | 1.04 |
| Idh2 (GeneID 269951) | SID152318361 | no change with or without drug | -1.8 | -0.84 | -1.24 | 0.78 |
| Msln (GeneID 56047) | SID152274312 | no change with or without drug | -0.11 | -0.34 | 0.22 | 0.93 |
| Nyap2 (GeneID 241134) | SID152341494 | no change with or without drug | 1.24 | 1.85 | 0.11 | 1.05 |
| Serpina1a (GeneID 20700) | SID152267336 | no change with or without drug | 0 | 0.51 | -0.22 | 0.94 |
| Pex14 (GeneID 56273) | SID152289907 | no change with or without drug | 0.9 | 0.67 | 0.56 | 1.02 |
| Enc1 (GeneID 13803) | SID152276733 | no change with or without drug | -0.34 | -1.01 | 0.45 | 0.91 |
| Rbm6 (GeneID 19654) | SID152330075 | high cell count with and without drug | 2.25 | 4.38 | -0.45 | 1.14 |
| Pias1 (GeneID 56469) | SID152295956 | no change with or without drug | 0.34 | -0.34 | 0.67 | 0.97 |
| Syt8 (GeneID 55925) | SID152280821 | no change with or without drug | 0 | -0.67 | 0.56 | 0.94 |
| Or8b40 (GeneID 258475) | SID152269866 | no change with or without drug | -0.56 | 0.17 | -0.56 | 0.89 |
| Pfdn4 (GeneID 109054) | SID152286793 | high cell count with doxorubicin only | 2.02 | 0.51 | 1.8 | 1.12 |
| Btbd10 (GeneID 68815) | SID152270301 | no change with or without drug | 0.67 | -0.17 | 0.9 | 1 |
| Sidt2 (GeneID 214597) | SID152328783 | no change with or without drug | -0.56 | 0.51 | -0.79 | 0.89 |
| Myf6 (GeneID 17878) | SID152332311 | no change with or without drug | 1.8 | -0.51 | 2.47 | 1.1 |
| Cckbr (GeneID 12426) | SID152283989 | no change with or without drug | -0.45 | 0.17 | -0.45 | 0.9 |
| Crygf (GeneID 12969) | SID152312453 | no change with or without drug | 0.45 | 0.67 | 0.11 | 0.98 |
| Fer (GeneID 14158) | SID152294609 | no change with or without drug | 0.22 | 0 | 0.34 | 0.96 |
| Lin9 (GeneID 72568) | SID152312882 | no change with or without drug | 1.12 | 0.34 | 1.01 | 1.04 |
| Tmem60 (GeneID 212090) | SID152315956 | no change with or without drug | -0.22 | 0.51 | -0.45 | 0.92 |
| AB124611 (GeneID 382062) | SID152290336 | no change with or without drug | 1.46 | -0.51 | 2.02 | 1.07 |
| Agpat5 (GeneID 52123) | SID152312863 | no change with or without drug | -1.12 | -0.17 | -1.01 | 0.84 |
| Mast1 (GeneID 56527) | SID152298506 | no change with or without drug | 0.34 | 0.51 | 0.11 | 0.97 |
| Zfp952 (GeneID 240067) | SID152327453 | no change with or without drug | 0 | -0.51 | 0.45 | 0.94 |
| Las1l (GeneID 76130) | SID152262380 | low cell count without drug only | -0.67 | -2.19 | 1.01 | 0.88 |
| Ppp6c (GeneID 67857) | SID152270694 | no change with or without drug | -0.45 | 1.52 | -1.24 | 0.9 |
| Cisd1 (GeneID 52637) | SID152293513 | no change with or without drug | -0.67 | -1.01 | 0.11 | 0.88 |
| Ppp2r3a (GeneID 235542) | SID152330600 | no change with or without drug | -0.22 | 0 | -0.11 | 0.92 |
| Ccny (GeneID 67974) | SID152266573 | no change with or without drug | 0 | -0.51 | 0.45 | 0.94 |
| Adra2b (GeneID 11552) | SID152283536 | no change with or without drug | -0.22 | -0.84 | 0.45 | 0.92 |
| Tcof1 (GeneID 21453) | SID152259193 | no change with or without drug | -1.57 | -1.69 | -0.45 | 0.8 |
| Fam89b (GeneID 17826) | SID152339698 | no change with or without drug | 0.9 | -0.17 | 1.24 | 1.02 |
| Mgat4e (GeneID 71001) | SID152298539 | high cell count with and without drug | 2.02 | 2.19 | 0.67 | 1.12 |
| Has3 (GeneID 15118) | SID152329911 | no change with or without drug | 0.56 | 0.84 | 0.11 | 0.99 |
| Serpinb9f (GeneID 20709) | SID152333214 | no change with or without drug | -0.45 | 0.67 | -0.79 | 0.9 |
| Hs6st3 (GeneID 50787) | SID152306242 | high cell count with and without drug | 2.47 | 2.19 | 1.01 | 1.16 |
| Tas1r3 (GeneID 83771) | SID152339163 | no change with or without drug | -0.45 | 0.51 | -0.67 | 0.9 |
| Sdc3 (GeneID 20970) | SID152310588 | no change with or without drug | 0 | 1.18 | -0.67 | 0.94 |
| Exosc1 (GeneID 66583) | SID152337091 | no change with or without drug | 1.01 | 1.52 | 0.11 | 1.03 |
| Stk11 (GeneID 20869) | SID152313240 | no change with or without drug | 0 | -0.17 | 0.22 | 0.94 |

Copied from the list:
Rab29 (GeneID 226422) [SID152302470], viability z-score with doxorubicin → 1.12
Cisd1 (GeneID 52637) [SID152293513], doxorubicin viability vs non-targeting: 0.88
Value of Mief1 (GeneID 239555) [SID152300123] in “viability z-score without drug”: 0
Nutm1 (GeneID 213765) [SID152301087], viability z-score without drug: -1.52
Value of Stk11 (GeneID 20869) [SID152313240] in “doxorubicin viability vs non-targeting”: 0.94
Sdc3 (GeneID 20970) [SID152310588], viability z-score with doxorubicin → 0
